Laboratory results: publication PMC4183798

Tests used:
[1] = biological target: T1, Fc-αDAG-T315A/T317A (rat) (UniProt F1M8K0); test: pull-down; Fc-tagged αDAG variants secreted from HEK293 cells (with or without LARGE) on protein A beads; mouse brain lysate; immunoblot for α-Nrxn; only the target purified
T1 sequence (chain, glycans added by LARGE): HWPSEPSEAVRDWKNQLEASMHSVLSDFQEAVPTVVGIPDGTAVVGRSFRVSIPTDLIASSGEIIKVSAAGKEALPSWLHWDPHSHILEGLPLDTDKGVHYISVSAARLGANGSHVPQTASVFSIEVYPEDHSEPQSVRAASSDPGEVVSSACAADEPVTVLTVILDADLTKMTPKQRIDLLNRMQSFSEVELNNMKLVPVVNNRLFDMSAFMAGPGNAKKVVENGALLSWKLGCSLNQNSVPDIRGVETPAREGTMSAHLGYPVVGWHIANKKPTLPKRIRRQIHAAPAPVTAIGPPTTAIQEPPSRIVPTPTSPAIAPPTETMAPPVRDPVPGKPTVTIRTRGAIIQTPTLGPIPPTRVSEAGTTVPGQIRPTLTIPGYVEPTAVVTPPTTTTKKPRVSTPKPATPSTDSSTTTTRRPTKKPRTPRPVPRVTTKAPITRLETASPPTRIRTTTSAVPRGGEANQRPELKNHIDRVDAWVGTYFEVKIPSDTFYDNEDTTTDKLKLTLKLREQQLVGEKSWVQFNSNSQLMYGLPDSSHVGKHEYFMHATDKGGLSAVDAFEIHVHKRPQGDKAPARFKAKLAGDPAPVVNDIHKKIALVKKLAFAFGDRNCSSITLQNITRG

[2] = biological target: T2, Fc-tagged full-length αDAG co-transfected with LARGE (rat) (UniProt F1M8K0); test: as above
T2 sequence (chain, glycans added by LARGE (mucin region)): T1 sequence (chain, glycans added by LARGE) with A288T, A290T

[3] = biological target: T2, Fc-tagged full-length αDAG co-transfected with LARGE (rat); test: pull-down; preformed complex of Fc-tagged αDAG with Nrxn1α(+SS#4) (Fig. 6C, lane 3, lower panels); how the complex was formed is not stated

binding [1] | binding [2] | binding [3] | Substance
binds | binds |  | α-Nrxn from mouse brain (receptor)
 |  | binds | Soluble, non-tagged extracellular domains of Nrxn1α (+SS#4) (rat) (domain or fragment)

Positions count from the first letter of the chain named. These are yes or no findings as the source states them, for the method shown. In cells and extracts the contact can be indirect. A result given as binding can be weak or reduced; the word gives no strength. Sequences can lack the tags named with a protein.
